Source: PMC11076521
Results are given in words; binding and its absence hold for the method and conditions named. In cells and extracts the contact can be indirect. Some binding calls cover weakened binding; strength is not graded here.

Protein sequences, listed by entry. Tags and fused reporters are not part of them. Lines headed by an entry give the natural chain unless they say otherwise; changes in a name come on top.
UniProt Q13772: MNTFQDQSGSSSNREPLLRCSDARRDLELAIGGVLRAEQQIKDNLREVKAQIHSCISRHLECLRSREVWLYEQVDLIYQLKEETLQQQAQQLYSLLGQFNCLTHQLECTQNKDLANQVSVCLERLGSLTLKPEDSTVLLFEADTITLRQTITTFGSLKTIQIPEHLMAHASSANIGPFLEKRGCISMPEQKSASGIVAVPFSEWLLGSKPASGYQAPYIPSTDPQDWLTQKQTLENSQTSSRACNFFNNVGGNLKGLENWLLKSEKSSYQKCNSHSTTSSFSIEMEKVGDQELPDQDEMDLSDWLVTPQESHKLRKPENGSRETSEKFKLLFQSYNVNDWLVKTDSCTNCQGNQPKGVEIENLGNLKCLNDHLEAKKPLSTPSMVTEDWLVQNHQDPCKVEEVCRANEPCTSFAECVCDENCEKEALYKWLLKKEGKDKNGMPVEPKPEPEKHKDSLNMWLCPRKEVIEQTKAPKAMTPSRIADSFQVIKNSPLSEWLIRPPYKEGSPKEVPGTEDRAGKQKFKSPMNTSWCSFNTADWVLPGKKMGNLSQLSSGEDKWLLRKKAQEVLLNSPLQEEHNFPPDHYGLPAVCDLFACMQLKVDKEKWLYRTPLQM
UniProt P02792: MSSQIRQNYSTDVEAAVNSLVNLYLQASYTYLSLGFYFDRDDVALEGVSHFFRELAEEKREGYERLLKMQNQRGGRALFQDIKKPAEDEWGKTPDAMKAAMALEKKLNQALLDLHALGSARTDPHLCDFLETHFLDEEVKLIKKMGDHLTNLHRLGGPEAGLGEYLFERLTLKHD

Target: mGFP-NCOA4 (UniProt Q13772)
Assay: co-IP; HeLa-FTH1 KO cells stably expressing mGFP-NCOA4 and mRuby3-FTH1/FTL constructs; anti-GFP IP of mGFP-NCOA4, immunoblot

binding: binds
Substance: mRuby3-FTL-L2H mutant (FTL S19R, Q26Y, A86D, K106N) (from UniProt P02792 1-175)
